Measured values published in PMC13091039.
No constants are given. Whether binding was seen depends on the method and setting. In cells and extracts the contact can be indirect. For part of these data: Binding calls can cover weak binding; strength is not graded here.

Chains of the proteins cited; added tags and fusions are not shown. Lines headed by an entry give the natural chain unless they say otherwise; changes in a name come on top.
UniProt P25116: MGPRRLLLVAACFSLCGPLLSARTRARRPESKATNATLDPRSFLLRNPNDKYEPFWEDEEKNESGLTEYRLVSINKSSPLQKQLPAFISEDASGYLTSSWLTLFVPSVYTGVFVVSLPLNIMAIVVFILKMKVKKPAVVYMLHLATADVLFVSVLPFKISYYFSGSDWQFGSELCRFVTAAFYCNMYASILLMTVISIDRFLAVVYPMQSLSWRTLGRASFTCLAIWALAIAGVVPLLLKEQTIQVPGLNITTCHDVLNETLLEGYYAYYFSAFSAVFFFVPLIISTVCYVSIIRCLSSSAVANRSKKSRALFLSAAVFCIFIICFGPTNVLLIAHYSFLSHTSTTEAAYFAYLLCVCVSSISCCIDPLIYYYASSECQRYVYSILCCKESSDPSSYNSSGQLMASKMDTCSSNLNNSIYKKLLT

Legend:
[1] = target: thrombin-activated PAR1 dP2 (proximal phospho-site) mutant fused to YFP (human) (UniProt P25116); experiment: FRET or BRET; HEK293 GRK2,3,5,6 KO cells re-expressing GRK5 WT, with PAR1-YFP (WT or mutant), EPCR-Halo and Rluc-βarr2; 1 nM thrombin or 20 nM APC, 37°C
[2] = target: thrombin-activated PAR1 0P mutant fused to YFP (human) (UniProt P25116); experiment: as above
[3] = target: thrombin-activated PAR1 dP2 (proximal phospho-site) mutant fused to YFP (human) (UniProt P25116); experiment: FRET or BRET; HEK293 parental cells expressing PAR1-YFP (WT or mutant), Rluc-βarr2 and EPCR(-Halo) (thrombin also without EPCR); 5 μM coelenterazine H, then 1 nM thrombin or 20 nM APC; BRET (530/480 nm) over time at 37°C, percent over basal

Renilla luciferase (Rluc)-tagged β-arrestin-2 (from UniProt P32121 1-409)
binding [1]: binds
binding [2]: no binding
binding [3]: binds
